Reference: PubChem BioAssay AID1508597 (Cure First, 2020)
This is a random part of the about 2,100 reagents, under one of the conditions tested. 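Calls flag viability under 80% in either arm, not effects specific to rucaparib; the reference for percent is not stated.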 Some reagents were tested in more than one well and are listed for each. Reagent sequences are not shown. Not given: the 100% reference.

- Screen: 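Knock-downs altering ovarian cancer cell survival with or without PARP inhibitor rucaparib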 (primary screen)
- System: human ovarian carcinoma lines grown from tumours: OCI-P5x (papillary serous) and OCI-C5x (clear cell)
- Reagent: siRNA pool against human genes, 1.25 pmol siRNA per well
- Time to read-out: 72 h or 96 h, depending on the cell culture
- Treatment: rucaparib 20 µM (about IC30) or vehicle, present until read-out
- Rucaparib or vehicle: Rucaparib
- Cell line: OCI-C5x (clear cell)
- Measured: 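ATP luminescence measured at 72 or 96 h according to the culture, then normalised and expressed as percent viability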
- Scale: viability, normalised: higher = more viable cells remaining
- Rule for the call: 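a well counts as a hit if its normalised viability is under 80 percent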
- Meaning of the calls: active = viability under 80%; inactive = viability 80% or more

gene	technical replicate	viability, normalised (%)	Call
RAB38	1	66.8	active
RAB38	2	82.5	inactive
RAB38	3	69.3	active
EIF2AK4	1	120	inactive
EIF2AK4	2	138	inactive
EIF2AK4	3	122	inactive
FANCD2	1	51.6	active
FANCD2	1	47.5	active
FANCD2	2	43.8	active
FANCD2	2	58.7	active
FANCD2	3	46	active
FANCD2	3	61.2	active
TAOK1	1	65.8	active
TAOK1	2	62.6	active
TAOK1	3	67	active
FOXS1	1	51.2	active
FOXS1	2	48.3	active
FOXS1	3	43.9	active
H4C4	1	42.9	active
H4C4	2	34.7	active
H4C4	3	42.9	active
PDE8A	1	63.7	active
PDE8A	2	56.9	active
PDE8A	3	62.1	active
